# Experimental data published in PubChem BioAssay AID445 (National Center for Advancing Translational Sciences (NCATS), 2006).
# The list shows a part of the results. These are further read-outs of the screen, such as a control signal, another cell line or another target. No call is given for them. Compounds called inactive in the main read-out are mostly missing here. The note in brackets gives the kind of curve behind each potency; many fits are weak.
# Assay: IkB Signaling
# Details: ABC-DLBCL IkBa-CBG/CBR dual luciferase ratio (green luciferase fused to IkBa over red control in OCI-Ly3 lymphoma cells), 4 h
# How it was run: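 Luminescence ratio of IκBα-fused green versus native red beetle luciferase in OCI-Ly3 cells, 4 h post-doxycycline with compound; red signal alone, scaled from basal (0%) to zero light (-100%), flagged nonspecific or cytotoxic effects.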
# [1] = measured here: control luc red channel unless noted
smiles,measurement,setting,value
O=C(CSCc1ccc(Cl)cc1)c1ccco1,AC50,[1],"39.8 µM [falling, single point]"
Cc1ccc(CNC(=O)C2CCN(Cc3nc(-c4cccc(Br)c4)oc3C)CC2)cc1,AC50,[1],"31.6 µM [falling, partial curve, poor fit]"
CC(C)CCNC(=O)C(c1ccco1)N(Cc1ccccc1)C(=O)c1snc(C(N)=O)c1N (stereo not given),AC50,[1],"12.6 µM [falling, partial curve]"
CCOc1ccc(-n2c(=O)c3c4c(sc3n(CC(=O)NC(C)CC)c2=O)CCCC4)cc1 (stereo not given),AC50,[1],"0.00794 µM [rising, full curve, poor fit]"
COc1cccc(N2CCN(C(=O)CCCCCn3c(=O)[nH]c4ccccc4c3=O)CC2)c1,AC50,[1],"31.6 µM [falling, single point]"
CC1CCn2c(nc3cc(C(=O)NCc4ccc(OC(C)C)cc4)ccc32)C1 (stereo not given),AC50,[1],"31.6 µM [falling, partial curve]"
CCC(C(=O)NC1CCC(C)CC1)n1nc(C)c2sc3ccccc3c2c1=O (stereo not given),AC50,[1],"12.6 µM [falling, partial curve]"
CCc1ccc(CNC(=O)c2cc3c(=O)n(Cc4cccs4)ccc3nc2C)cc1,AC50,[1],"39.8 µM [falling, single point]"
c1ccc(-c2nc(CSc3nnc(-c4cccs4)o3)cs2)cc1,AC50,[1],"20 µM [falling, partial curve]"
COc1ccc(Cn2ccc3nc(C)c(C(=O)N4CCN(c5ccc(OC)cc5)CC4)cc3c2=O)cc1,AC50,[1],"31.6 µM [falling, single point]"
NC(=O)c1ccsc1NC(=O)c1nc(-c2ccccc2)n(-c2ccccc2)n1,AC50,[1],"15.8 µM [falling, partial curve]"
Cc1cc(-n2c(C)cc(C(=O)CN3C(=O)NC4(CCCCCC4)C3=O)c2C)no1,AC50,[1],"15.8 µM [falling, partial curve]"
COc1ccc(-n2ncc(C(=O)N3CCN(c4cc(C)ccc4C)CC3)c2C2CCN(C(=O)OC(C)(C)C)CC2)cc1,AC50,[1],"39.8 µM [falling, single point]"
CC1(C)Cc2c(sc3nc(SCC(=O)N4CCOCC4)nc(N)c23)CO1,AC50,[1],"3.98 µM [falling, full curve, poor fit]"
CCS(=O)(=O)c1ncc(Cl)c(C(=O)Nc2c(C(=O)Nc3cccc(C)c3)oc3ccccc23)n1,AC50,[1],"12.6 µM [falling, partial curve]"
COc1ccc(C)cc1NC(=O)c1cc2c(=O)n(Cc3cccnc3)ccc2nc1C,AC50,[1],"31.6 µM [falling, single point]"
Cc1noc(/C=C/N(C)C)c1S(=O)(=O)N1CCc2ccccc21,AC50,measured here: IkB-luc green channel,"15.8 µM [falling, partial curve]"
same,AC50,measured here: control luc red channel,"10 µM [falling, partial curve]"
CCc1ccc(C(=O)N2CCC(c3nc(-c4ccc(S(=O)(=O)N5CCCC5)cc4)no3)CC2)cc1,AC50,[1],"12.6 µM [falling, partial curve]"
CCCCS(=O)CC(COc1ccc(Cl)cc1)OC(=O)c1ccccc1 (stereo not given),AC50,[1],"25.1 µM [falling, partial curve]"
CCCOc1ccc(CNC(=O)CCCn2nc(C)c3sc4ccccc4c3c2=O)cc1,AC50,[1],"25.1 µM [falling, single point]"
COCCOC(=O)C1=C(C)NC(C)=C(C(=O)OC(C)C)[C@@H]1c1cccc([N+](=O)[O-])c1,AC50,[1],"39.8 µM [falling, partial curve]"
Cc1cccc(NC(=O)C2CCN(S(=O)(=O)c3cccc4cccnc34)CC2)c1,AC50,[1],"7.94 µM [falling, partial curve]"
CC1CCCN(Cc2nc3c(c(=O)n(C)c(=O)n3C)n2Cc2ccc(Cl)cc2)C1 (stereo not given),AC50,[1],"5.01 µM [falling, partial curve]"
Cn1nc(C(=O)NCc2ccccc2Cl)c2c1-c1ccccc1S(=O)(=O)C2,AC50,[1],"0.02 µM [rising, full curve]"
Cc1cc(C)cc(NC(=O)CSc2oc(-c3ccco3)nc2S(=O)(=O)c2ccc(Cl)cc2)c1,AC50,[1],"6.31 µM [falling, partial curve]"
Cc1cc(Br)ccc1NC(=O)CCNS(=O)(=O)c1cccc2nonc12,AC50,[1],"10 µM [falling, partial curve]"
O=C(Nc1ccc(Br)cc1F)c1cc2nc(-c3ccco3)cc(C(F)(F)Cl)n2n1,AC50,[1],"25.1 µM [rising, partial curve, poor fit]"
CN(c1cccc(NC(=O)CCSc2ccccc2)c1)S(C)(=O)=O,AC50,[1],"25.1 µM [falling, single point]"
CCn1c2ccccc2c2nnc(SCC(=O)c3ccccc3)nc21,AC50,[1],"39.8 µM [rising, single point]"
O=C(Cn1cc(SCc2ccccc2F)c2ccccc21)N1CCCC1,AC50,[1],"25.1 µM [falling, single point]"
COC(=O)c1ccc(COc2ccc3c(C)c(C)c(=O)oc3c2)o1,AC50,[1],"3.16 µM [falling, full curve]"
Oc1ccccc1-c1nnc(COc2ccccc2)o1,AC50,[1],"10 µM [falling, partial curve]"
COc1ccccc1N1C(=O)C2C3C=CC(C3)C2(C)C1=O (stereo not given),AC50,[1],"25.1 µM [rising, partial curve] [measured here: IkB-luc green channel]"
O=C(Nc1nc2c(s1)CCCC2)c1ccccc1F,AC50,[1],"7.94 µM [falling, partial curve]"
CC(C)c1ccc(C2=NC(c3ccncc3)=Nc3ccc(F)cc3N2)cc1,AC50,[1],"25.1 µM [falling, partial curve]"
CC(C)n1c(C(=O)OCC(=O)NCc2ccc3c(c2)OCO3)cc2sccc21,AC50,[1],"39.8 µM [falling, single point]"
CNC(=O)c1ccc2nc(Cc3ccccc3)oc2c1,AC50,[1],"0.158 µM [rising, partial curve]"
CN1/C(=C\C(=O)CN2C(=O)NC3(CCCCCC3)C2=O)C(C)(C)c2ccccc21,AC50,[1],"31.6 µM [falling, single point]"
CC(C)c1ccc2oc(-c3ccc(Cl)c(NC(=O)Cc4ccccc4)c3)nc2c1,AC50,[1],"0.794 µM [falling, full curve]"

# No new results follow: an excerpt of the list.
smiles,measurement,setting,value
COc1ccc(-n2ncc(C(=O)N3CCN(c4cc(C)ccc4C)CC3)c2C2CCN(C(=O)OC(C)(C)C)CC2)cc1,AC50,[1],"39.8 µM [falling, single point]"
CC1(C)Cc2c(sc3nc(SCC(=O)N4CCOCC4)nc(N)c23)CO1,AC50,[1],"3.98 µM [falling, full curve, poor fit]"
